Data on 18 molecules can be found in publication PMC10163288.

This is one part of the list.

Sequences and labels used below:
B1: il2ra_site1_2b5i_sap_17_mot_HHH_b1_08678_af2_000000008_0001_41_54_H_._HHH_b2_02895_0001_0000500022_0000001_0_0001 (protein)
chain: SSSSNELKELVRFVLRLKHEFNLSQELVRELLRLLNELHQRGVSPEEIKEILEKVAEELGSSSSS
B2: il2ra_site1_2b5i_normal_mot_HHH_b2_04910_000000118_0001_1_19_H_._HHH_b1_07300_af2_0001_0000300009_0000001_0 (protein)
chain: SSSSNESERVRELFELADRLDKNGNPEEAEEVLKEAEELAEEANNRHLQRQVEAAKRAFESSSSS
B3: il2ra_site1_3nfp_sap_15_mot_HHH_b1_02637_af2_000000013_0001_1_18_H_._HHH_b1_08141_af2_0001_0000100001_0000001_0_0001_af2pred_0001_af2pred_swapped (protein)
chain: TLRWLLRRAEKRGTEEEFVKRLLEEVAKSLGNPEDAKKFLKRDLRRAGIPPEEVEELVERAEELR
B4: il2ra_site2_3nfp_sap_13_mot_HHH_b2_07840_000000026_0001_18_34_H_._HHH_b2_06303_0001_0000600058_0000001_0_0001 (protein)
chain: SSSSSKAEEYLRIAIEIVRRAIEDGDPESARRSAEIAAAAAESNNDEEALKILEELLEELSSSSS
B5: il2ra_site1_3nfp_sap_16_mot_HHH_b1_07180_af2_000000260_0001_1_19_H_._HHH_b2_05359_af2_0001_0000400031_0000001_0_0001_af2pred_0001_af2pred (protein)
chain: SEELQELDRAAKKLDPELLELWWALAELLARKGDPRYLEVIKEVVELAKKNEEEAKELAKEVLEK
B6: il2ra_site1_2b5i_sap_17_mot_HHH_b2_01822_000000237_0001_40_54_H_._HHH_b2_07957_0001_0000100004_0000001_0_0001 (protein)
chain: SSSSELHRFAAELVDRLIEELGLDFEQARELTREAVRLIWRGVSEEEIEKLVEELARELRGSSSS
B7: il2ra_site1_3nfp_sap_16_mot_5dea99290cf7e133ebc5b763b21a7a39_0001_000000141_0001_34_49_H_._ems_3hC_617_0002_0001_0000300017_0000001_0_0001 (protein)
chain: NDKIAERLVRQAVEQNSPRILKKILEDLERVLGDPEEARERLRELLELVLGDPEEVERLLELAEE
B8: il2ra_site2_3nfp_normal_mot_HHH_b2_06150_000000217_0001_39_53_H_._de103a6a2759fb2eb67fe2c7ae4a7c2b_0001_0001_0000200008_0000001_0_af2pred_0001_1_af2pred_swapped (protein)
chain: SRRLEALRILRELGDPEAASSLFILAADVFVEGDPELRELLEQVLELVEEGDPEEARRLLEEIAN
B9: il2ra_site2_2erj_sap_20_mot_HHH_b2_06331_000000250_0001_1_15_H_._95ea16d1e5c3ef04f4ccc51fe24bf1b3_0001_0001_0000300018_0000001_0_0001 (protein)
chain: SSSSLRERYEELNELSKRLSEAAENNDKETIEELLEELRELVEETGDPALRLLLRLIKAQLSSSS
B10: il2ra_site1_2b5i_normal_mot_HHH_b1_02271_000000068_0001_1_16_H_._HHH_b2_05754_af2_0001_0000200009_0000001_0_af2pred_dldesign_0_af2pred (protein)
chain: SSSSSKEELTEEVKRLIEQAKKEKNRFEALKKLEEAYKLASKIDDEELLEEIEKLFKELSSSSSS
B11: il2ra_site1_2b5i_normal_mot_f5ff40796168375b462bec8614a1db4a_0001_1_000000138_0001_53_65_H_._HHH_b1_07775_af2_0001_0000200011_0000001_0_af2pred_dldesign_0_af2pr … (protein)
chain: SSSSSEELRELVKELIEEAKKLKDKKLAKKILLLAKRVAKKAGDEELVKEVEAELEKVLKSSSSS
B12: il2ra_site1_3nfp_sap_10_mot_58e3eb3031e6d57439b1b965989c2868_0001_af2_000000159_0001_19_34_H_._23df80f98f222f1add62a155639b9461_0001_0001_0000200014_0000001_0_0 … (protein)
chain: DAEEAIAEFIAEAVKNNNPKLLRKVLENAERFLGNPEEAKRLFEELLEKAGLSPEEIEEAKELVE
B13: il2ra_site1_1z92_sap_9_mot_74bb627b62bb877a56547cee6c7a6e54_0001_000000029_0001_1_13_H_._HHH_b2_03173_0001_0000200016_0000001_0_0001 (protein)
chain: SSSSDEAHEKFAKRVVEDFVKTIGLSEEQKEQLEELAKRLLEEGFSNREIFEELAKLAERLSSSS
B14: il2ra_site1_3nfp_sap_21_mot_HHH_b2_07963_000000178_0001_1_20_H_._HHH_eva_0385_af2_0001_0000100002_0000001_1_0001_af2pred_0001_af2pred (protein)
chain: SSSSTEELKELLEEAAELARNGNPEEALEVLREALRLAEERNDKNAEKFLRVAIKIVESLRSSSS
B15: il2ra_site1_1z92_normal_mot_54e474eed2d0515e81978198f0f96ec2_0001_000000202_0001_15_30_H_._544ef0e38e907b7890d4414ebae48784_0001_1_0001_0000300011_0000001_0 (protein)
chain: TREELIEELAKLLGLPPETVEEDLERFERLAGDPRLAVKAFLQVLKKQGELTPEVEELLEQIERT
B16: il2ra_site1_2b5i_normal_mot_HHH_b2_04910_000000118_0001_1_19_H_._HHH_b1_02435_af2_0001_0000700035_0000001_0 (protein)
chain: SSSSSEEARELFREADEADRRGDQEEAEELLEEALRLAREAGNRALARMIESALEHVRDHGSSSS
B17: il2ra_site1_2b5i_sap_17_mot_HHH_b1_07759_af2_000000221_0001_42_56_H_._HHH_b1_07304_af2_0001_0000400035_0000001_0_0001_af2pred_0001_af2pred (protein)
chain: SSSSDEETEFALEVLRLLWHLVAQGNEEEAEELLKEAREFLEKAGDEVAVKDLEKALRKMKSSSS
B18: il2ra_site2_2erj_sap_19_mot_HHH_b1_08609_000000203_0001_43_56_H_._7b66ed016c170d635ef469617b4fe817_0001_0001_0000200019_0000001_1_0001 (protein)
chain: SSSSNEELRRLYELANRITHLAARGDEEEAEELLEELERLAKKTDSENAREIAEWLRKHLGSSSS

This test deals with il2ra, P01589. The test is described as follows: yeast display titration.
As for B1, the “apparent Kd” value is “inactive: no binding seen”.
As for B2, the entry is “inactive: no binding seen”; as for B3, “inactive: no binding seen”.
As for B4, the entry is “inactive: no binding seen”; as for B5, “inactive: no binding seen”.
With B6, the apparent Kd is inactive: > 2.63 nM.
As for B7, the “apparent Kd” value was “inactive: no binding seen”.
As for B8, the entry is “inactive: no binding seen”; as for B9, “inactive: no binding seen”.
For B10, the “apparent Kd” value was “inactive: no binding seen”.
As for B11, the entry is “inactive: no binding seen”; as for B12, “inactive: no binding seen”; as for B13, “inactive: no binding seen”.
With B14, the “apparent Kd” value was “inactive: no binding seen”.
For B15, the “apparent Kd” value is “inactive: no binding seen”.
With B16 the entry was “inactive: no binding seen”; with B17, “inactive: no binding seen”; with B18, “inactive: no binding seen”.
